From patent US20110189097A1
Results are given in words; binding and its absence hold for the method and conditions named. In cells and extracts the contact can be indirect. Some results given as binding are weak or reduced against the parent protein; the word gives no strength.

Protein sequences, listed by entry. Tags and fused reporters are not part of them. Lines headed by an entry give the natural chain unless they say otherwise; changes in a name come on top. Residues count along the entry.
UniProt Q8J025: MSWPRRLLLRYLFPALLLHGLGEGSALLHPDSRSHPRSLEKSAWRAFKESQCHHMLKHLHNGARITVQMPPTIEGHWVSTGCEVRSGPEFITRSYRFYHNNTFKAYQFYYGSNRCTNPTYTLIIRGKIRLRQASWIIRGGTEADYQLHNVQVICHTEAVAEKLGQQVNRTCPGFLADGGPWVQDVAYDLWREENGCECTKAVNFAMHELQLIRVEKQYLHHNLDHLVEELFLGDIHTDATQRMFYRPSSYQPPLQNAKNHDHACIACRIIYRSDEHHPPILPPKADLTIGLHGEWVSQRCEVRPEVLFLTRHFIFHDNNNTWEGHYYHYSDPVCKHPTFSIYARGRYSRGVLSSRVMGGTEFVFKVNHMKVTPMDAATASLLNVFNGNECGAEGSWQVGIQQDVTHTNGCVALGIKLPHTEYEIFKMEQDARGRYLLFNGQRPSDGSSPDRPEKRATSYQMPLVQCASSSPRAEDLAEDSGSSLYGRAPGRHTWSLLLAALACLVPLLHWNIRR
UniProt P56704, residues 19-352: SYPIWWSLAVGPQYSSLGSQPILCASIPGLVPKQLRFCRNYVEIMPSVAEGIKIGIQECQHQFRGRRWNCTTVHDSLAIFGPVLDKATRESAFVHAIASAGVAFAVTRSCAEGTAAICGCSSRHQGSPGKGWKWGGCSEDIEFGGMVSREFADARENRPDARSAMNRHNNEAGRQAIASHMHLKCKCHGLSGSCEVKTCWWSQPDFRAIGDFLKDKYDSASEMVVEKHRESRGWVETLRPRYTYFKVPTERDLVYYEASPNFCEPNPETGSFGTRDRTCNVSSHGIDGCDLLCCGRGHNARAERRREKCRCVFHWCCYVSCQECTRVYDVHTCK

Assays:
[1] = target: Flag-tagged APCDD1 (APCDD1-Flag) (human) (UniProt Q8J025); assay: co-immunoprecipitation (homodimerization)
[2] = target: HA-tagged WNT3A (WNT3A-HA) (human) (UniProt P56704); assay: co-immunoprecipitation
[3] = target: HA-tagged WNT3A (WNT3A-HA) (human) (UniProt P56704); assay: summary sentence of the in vitro interaction assays (co-IP, GST pulldown)
[4] = target: HA-tagged WNT3A (WNT3A-HA) (human) (UniProt P56704); assay: co-immunoprecipitation in HEK293T cells
[5] = target: HA-tagged APCDD1 (APCDD1-HA) (human) (UniProt Q8J025); assay: co-immunoprecipitation (homodimerization)

HA-tagged APCDD1 (APCDD1-HA) (from UniProt Q8J025 27-514)
binding [1]: binds

Flag-tagged extracellular domain of APCDD1 protein (APCDD1-ΔTM-Flag) (from UniProt Q8J025 27-486)
binding [2]: binds | binding [3]: binds | binding [4]: binds

Flag-tagged APCDD1 (APCDD1-Flag) (from UniProt Q8J025 27-514)
binding [5]: binds
